Results are given in words; binding and its absence hold for the method and conditions named. In cells and extracts the contact can be indirect. Some binding calls cover weakened binding; strength is not graded here. Where a sequence is shown, tags or fusion partners need not be part of it.

Protein sequences, listed by entry. Tags and fused reporters are not part of them.
UniProt O95573: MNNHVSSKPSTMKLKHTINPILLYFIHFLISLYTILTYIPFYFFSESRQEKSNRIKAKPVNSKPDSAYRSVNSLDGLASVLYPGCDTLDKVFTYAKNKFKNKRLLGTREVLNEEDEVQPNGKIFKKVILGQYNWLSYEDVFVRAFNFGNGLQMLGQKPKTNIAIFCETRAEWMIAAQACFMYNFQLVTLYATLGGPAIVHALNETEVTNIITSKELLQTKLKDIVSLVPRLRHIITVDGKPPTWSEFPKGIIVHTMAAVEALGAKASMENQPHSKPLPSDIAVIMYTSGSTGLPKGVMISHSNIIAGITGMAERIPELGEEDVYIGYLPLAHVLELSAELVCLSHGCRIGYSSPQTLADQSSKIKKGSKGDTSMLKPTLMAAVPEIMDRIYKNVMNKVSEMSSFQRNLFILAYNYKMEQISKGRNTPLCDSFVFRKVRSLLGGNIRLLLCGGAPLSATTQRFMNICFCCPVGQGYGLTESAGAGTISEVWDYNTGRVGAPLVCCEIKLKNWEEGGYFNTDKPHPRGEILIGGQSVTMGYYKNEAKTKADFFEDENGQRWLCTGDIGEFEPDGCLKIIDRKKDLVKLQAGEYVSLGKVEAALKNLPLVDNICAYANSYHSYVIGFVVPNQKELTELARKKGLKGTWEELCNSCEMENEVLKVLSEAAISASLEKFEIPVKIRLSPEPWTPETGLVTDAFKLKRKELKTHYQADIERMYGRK

We go through two molecules from article PMC12589423.

Test [1] has as its target T1, TMEM166-GFP (human (cDNA library of Huh7 cells)) (UniProt Q9H8M9).
T1 sequence: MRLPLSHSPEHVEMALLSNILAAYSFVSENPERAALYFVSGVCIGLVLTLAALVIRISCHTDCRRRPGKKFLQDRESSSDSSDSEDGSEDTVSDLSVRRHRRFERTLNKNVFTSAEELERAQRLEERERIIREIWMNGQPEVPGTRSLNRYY
Briefly: co-IP; HEK293T cells transfected with plasmids for 24 h; RIPA lysates precleared with protein G sepharose, incubated with anti-GFP affinity beads overnight, washed five times; Flag-tagged partner detected by western blotting. For orientation: A western blot detects proteins with antibodies after separation by electrophoresis.

Test [2] concerns the target GFP-ACSL3 (human (cDNA library of Huh7 cells)) (UniProt O95573). The test is described as above.

For the molecule Flag-ACSL3 (from UniProt O95573 1-720), the binding result in test [1] is listed as “binds”.

B1: Flag-TMEM166 (protein, UniProt Q9H8M9 1-152)
chain: MRLPLSHSPEHVEMALLSNILAAYSFVSENPERAALYFVSGVCIGLVLTLAALVIRISCHTDCRRRPGKKFLQDRESSSDSSDSEDGSEDTVSDLSVRRHRRFERTLNKNVFTSAEELERAQRLEERERIIREIWMNGQPEVPGTRSLNRYY
As for B1, the binding entry in test [2] was “binds”.
